The target in this test is YY1 (mouse (endogenous in AML12)) (UniProt Q00899). In words: co-IP; total lysate of oe-NEDD4L AML12 cells; Protein G agarose bound with target protein antibody (anti-YY1 or anti-NEDD4L) or control IgG, overnight at 4°C; eluted in SDS-PAGE loading buffer, western blot. For orientation: A western blot detects proteins with antibodies after separation by electrophoresis.

Protein sequences, listed by entry. Tags and fused reporters are not part of them.
UniProt Q00899: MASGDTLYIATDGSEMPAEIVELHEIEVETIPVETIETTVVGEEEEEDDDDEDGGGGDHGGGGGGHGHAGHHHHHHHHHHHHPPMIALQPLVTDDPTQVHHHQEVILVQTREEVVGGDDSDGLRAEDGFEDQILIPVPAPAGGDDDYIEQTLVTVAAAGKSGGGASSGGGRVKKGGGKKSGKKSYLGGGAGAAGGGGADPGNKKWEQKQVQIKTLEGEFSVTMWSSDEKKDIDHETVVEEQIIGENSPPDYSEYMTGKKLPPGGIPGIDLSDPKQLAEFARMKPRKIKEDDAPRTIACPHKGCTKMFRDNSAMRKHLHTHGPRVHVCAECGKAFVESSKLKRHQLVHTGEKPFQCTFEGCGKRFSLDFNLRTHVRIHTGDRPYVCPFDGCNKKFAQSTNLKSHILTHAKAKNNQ
UniProt Q8CFI0: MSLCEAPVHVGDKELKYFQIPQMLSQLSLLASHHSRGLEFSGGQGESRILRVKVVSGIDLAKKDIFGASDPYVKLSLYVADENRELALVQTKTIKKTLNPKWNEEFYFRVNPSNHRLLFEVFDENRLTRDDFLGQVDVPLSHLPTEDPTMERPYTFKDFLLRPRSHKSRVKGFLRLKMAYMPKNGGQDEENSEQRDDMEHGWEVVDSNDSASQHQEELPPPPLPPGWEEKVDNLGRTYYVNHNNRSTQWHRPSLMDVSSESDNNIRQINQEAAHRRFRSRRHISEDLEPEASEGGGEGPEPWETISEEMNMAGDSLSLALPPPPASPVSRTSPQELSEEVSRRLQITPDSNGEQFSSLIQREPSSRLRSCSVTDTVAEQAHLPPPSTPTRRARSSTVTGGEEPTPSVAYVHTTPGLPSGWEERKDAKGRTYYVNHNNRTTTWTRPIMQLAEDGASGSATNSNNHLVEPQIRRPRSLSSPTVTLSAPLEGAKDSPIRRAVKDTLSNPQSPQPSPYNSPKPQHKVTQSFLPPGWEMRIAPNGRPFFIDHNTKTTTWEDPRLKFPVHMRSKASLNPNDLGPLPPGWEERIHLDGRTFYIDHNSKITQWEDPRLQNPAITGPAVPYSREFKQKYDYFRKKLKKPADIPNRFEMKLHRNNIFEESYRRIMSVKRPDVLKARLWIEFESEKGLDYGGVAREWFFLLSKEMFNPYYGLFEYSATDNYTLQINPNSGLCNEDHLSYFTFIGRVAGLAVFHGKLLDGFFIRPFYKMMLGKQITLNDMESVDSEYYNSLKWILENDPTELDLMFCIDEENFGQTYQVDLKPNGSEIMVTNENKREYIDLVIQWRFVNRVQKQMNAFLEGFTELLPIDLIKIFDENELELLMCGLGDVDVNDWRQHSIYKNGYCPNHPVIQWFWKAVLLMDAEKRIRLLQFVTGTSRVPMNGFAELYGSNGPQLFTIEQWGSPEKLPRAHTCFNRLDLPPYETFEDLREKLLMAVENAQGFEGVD

Results are given in words; binding and its absence hold for the method and conditions named. In cells and extracts the contact can be indirect. Some binding calls cover weakened binding; strength is not graded here.

In the case of “E3 ubiquitin ligase NEDD4L (from UniProt Q8CFI0 1-1004) (enzyme)”, the binding entry was “binds”.

The values are drawn from article PMC12536466.
